No constants are given. Whether binding was seen depends on the method and setting. Binding seen in cells or lysates may run through a third protein. A yes stands for co-enrichment or nearness to the bait. Other partners may have been found. For some assays here: A no says only that the protein was not detected with the bait.
Tests used:
Experiment in all cases: affinity purification with mass spectrometry
Halo-SMAD4 (human) = Halo-SMAD4 (human) (UniProt Q13485)
[1] = target: Halo-SMAD4 phosphorylated by BRK-YF (human) (UniProt Q13485)
[2] = target: Halo-SMAD4 Y353F & Y412F (human) (UniProt Q13485)
SNAP-Flag-BRK-WT (human) = SNAP-Flag-BRK-WT (human) (UniProt Q13882)

Chains of the proteins cited; added tags and fusions are not shown. Lines headed by an entry give the natural chain unless they say otherwise; changes in a name come on top.
UniProt Q13485: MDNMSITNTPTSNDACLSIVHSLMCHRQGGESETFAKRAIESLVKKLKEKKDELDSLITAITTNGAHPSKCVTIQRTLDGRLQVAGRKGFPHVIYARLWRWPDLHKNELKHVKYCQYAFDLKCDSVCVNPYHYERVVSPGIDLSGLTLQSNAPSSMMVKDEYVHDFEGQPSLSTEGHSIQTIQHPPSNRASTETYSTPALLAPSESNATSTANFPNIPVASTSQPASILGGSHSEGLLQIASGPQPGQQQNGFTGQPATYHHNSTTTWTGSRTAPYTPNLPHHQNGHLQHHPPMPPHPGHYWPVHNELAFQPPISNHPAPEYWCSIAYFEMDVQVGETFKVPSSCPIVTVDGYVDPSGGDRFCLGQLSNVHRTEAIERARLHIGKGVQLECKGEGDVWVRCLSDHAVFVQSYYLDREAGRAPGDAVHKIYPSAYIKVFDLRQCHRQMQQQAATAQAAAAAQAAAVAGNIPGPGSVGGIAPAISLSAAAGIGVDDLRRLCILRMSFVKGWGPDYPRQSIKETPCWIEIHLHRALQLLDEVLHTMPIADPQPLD
UniProt Q93008: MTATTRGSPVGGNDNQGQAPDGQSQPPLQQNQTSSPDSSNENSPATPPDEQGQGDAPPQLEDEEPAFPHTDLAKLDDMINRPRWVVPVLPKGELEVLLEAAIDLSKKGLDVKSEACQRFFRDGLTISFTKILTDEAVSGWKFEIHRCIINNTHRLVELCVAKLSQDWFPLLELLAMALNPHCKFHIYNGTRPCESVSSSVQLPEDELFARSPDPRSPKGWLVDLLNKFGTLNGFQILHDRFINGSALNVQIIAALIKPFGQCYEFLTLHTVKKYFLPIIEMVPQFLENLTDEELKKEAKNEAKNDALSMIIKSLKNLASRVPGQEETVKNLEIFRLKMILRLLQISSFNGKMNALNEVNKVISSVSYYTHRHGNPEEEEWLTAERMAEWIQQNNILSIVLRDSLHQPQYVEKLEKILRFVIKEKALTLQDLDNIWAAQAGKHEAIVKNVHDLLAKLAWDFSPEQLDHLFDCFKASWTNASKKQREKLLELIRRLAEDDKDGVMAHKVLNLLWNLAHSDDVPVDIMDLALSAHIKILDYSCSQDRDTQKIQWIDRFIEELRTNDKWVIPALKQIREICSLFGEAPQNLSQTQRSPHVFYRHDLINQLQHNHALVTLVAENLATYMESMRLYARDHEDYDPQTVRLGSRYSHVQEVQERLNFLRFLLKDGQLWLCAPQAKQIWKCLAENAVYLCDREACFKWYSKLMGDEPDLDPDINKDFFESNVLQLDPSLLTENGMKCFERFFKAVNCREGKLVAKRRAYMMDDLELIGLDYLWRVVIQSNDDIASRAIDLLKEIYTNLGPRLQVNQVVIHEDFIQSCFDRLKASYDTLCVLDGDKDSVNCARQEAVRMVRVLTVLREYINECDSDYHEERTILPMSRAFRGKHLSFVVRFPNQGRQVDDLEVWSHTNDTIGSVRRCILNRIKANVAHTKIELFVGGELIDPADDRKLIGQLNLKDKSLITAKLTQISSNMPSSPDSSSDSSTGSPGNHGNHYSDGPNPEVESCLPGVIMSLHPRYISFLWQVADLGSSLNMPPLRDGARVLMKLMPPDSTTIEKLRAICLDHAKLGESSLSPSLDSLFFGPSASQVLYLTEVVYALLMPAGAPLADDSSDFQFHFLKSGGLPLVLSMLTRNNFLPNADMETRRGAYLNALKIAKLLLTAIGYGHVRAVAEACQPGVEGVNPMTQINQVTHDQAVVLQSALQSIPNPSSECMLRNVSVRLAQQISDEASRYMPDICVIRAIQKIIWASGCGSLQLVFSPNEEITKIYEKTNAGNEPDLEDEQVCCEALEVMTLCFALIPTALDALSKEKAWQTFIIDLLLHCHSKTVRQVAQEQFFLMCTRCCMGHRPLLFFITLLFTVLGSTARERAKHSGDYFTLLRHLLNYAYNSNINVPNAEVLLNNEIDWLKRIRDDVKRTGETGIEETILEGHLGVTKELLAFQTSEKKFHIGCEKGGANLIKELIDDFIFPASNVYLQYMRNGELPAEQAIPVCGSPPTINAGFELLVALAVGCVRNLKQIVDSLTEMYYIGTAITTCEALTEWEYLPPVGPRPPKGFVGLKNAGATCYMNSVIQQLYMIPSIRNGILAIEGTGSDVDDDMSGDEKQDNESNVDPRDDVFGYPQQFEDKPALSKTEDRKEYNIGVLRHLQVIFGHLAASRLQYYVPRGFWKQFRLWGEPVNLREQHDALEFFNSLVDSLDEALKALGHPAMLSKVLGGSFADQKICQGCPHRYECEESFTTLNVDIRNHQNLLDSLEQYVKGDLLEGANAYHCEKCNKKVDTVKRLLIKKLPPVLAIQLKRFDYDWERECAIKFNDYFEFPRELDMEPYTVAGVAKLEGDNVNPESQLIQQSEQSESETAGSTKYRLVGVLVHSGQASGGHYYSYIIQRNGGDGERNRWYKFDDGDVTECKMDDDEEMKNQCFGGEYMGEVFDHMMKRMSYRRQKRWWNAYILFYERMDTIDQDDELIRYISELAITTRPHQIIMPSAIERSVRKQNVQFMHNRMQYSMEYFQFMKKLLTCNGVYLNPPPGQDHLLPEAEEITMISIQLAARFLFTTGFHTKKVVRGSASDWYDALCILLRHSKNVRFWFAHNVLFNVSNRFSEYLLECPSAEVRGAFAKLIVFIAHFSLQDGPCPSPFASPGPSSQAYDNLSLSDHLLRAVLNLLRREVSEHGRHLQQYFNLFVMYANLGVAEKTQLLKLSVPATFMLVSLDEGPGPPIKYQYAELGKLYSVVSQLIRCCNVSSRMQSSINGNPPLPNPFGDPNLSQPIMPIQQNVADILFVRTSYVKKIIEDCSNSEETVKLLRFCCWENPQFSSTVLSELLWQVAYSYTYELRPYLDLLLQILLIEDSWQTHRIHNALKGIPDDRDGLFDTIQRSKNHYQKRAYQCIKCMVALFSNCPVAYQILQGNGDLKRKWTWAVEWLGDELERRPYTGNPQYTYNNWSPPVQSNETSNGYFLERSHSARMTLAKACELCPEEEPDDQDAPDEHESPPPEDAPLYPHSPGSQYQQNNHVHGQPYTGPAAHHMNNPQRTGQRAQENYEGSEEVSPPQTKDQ
UniProt Q99717: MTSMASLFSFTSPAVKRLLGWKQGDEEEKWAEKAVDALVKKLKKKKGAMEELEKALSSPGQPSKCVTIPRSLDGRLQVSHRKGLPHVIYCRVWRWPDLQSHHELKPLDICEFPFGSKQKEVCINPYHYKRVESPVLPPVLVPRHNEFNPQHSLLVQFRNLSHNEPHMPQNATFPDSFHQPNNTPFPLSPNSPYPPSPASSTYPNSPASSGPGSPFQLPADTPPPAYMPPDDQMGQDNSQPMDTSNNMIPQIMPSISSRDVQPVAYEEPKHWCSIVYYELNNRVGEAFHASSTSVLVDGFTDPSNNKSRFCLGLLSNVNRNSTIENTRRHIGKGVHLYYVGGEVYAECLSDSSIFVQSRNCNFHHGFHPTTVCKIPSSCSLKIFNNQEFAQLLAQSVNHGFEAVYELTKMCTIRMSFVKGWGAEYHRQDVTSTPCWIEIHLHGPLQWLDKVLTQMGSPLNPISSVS
UniProt Q92769: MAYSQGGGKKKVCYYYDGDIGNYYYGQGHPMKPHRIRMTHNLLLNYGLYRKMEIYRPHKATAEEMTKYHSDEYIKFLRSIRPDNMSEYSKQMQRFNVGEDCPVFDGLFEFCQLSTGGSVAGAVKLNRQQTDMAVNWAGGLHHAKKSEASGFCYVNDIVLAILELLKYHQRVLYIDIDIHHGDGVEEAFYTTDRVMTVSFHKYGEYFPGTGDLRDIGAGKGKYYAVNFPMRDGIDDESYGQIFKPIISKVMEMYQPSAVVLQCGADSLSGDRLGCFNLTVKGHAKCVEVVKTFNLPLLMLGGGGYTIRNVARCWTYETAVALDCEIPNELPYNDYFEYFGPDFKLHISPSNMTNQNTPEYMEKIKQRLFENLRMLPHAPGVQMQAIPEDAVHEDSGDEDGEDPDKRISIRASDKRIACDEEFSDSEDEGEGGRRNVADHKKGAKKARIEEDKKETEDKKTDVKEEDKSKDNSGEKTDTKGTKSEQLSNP
UniProt O15198: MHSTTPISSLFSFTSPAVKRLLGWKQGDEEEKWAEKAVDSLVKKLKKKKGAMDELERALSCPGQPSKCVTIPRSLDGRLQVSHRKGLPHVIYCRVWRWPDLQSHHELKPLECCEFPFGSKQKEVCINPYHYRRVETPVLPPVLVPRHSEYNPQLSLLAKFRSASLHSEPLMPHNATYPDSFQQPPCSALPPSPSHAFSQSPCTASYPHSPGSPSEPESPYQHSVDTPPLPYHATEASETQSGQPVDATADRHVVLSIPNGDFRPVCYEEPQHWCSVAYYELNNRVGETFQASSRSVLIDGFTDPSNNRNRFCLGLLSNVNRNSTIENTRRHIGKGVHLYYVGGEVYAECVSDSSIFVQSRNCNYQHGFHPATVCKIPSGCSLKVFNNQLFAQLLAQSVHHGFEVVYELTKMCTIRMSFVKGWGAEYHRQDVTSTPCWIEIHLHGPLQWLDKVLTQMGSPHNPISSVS
UniProt P84022: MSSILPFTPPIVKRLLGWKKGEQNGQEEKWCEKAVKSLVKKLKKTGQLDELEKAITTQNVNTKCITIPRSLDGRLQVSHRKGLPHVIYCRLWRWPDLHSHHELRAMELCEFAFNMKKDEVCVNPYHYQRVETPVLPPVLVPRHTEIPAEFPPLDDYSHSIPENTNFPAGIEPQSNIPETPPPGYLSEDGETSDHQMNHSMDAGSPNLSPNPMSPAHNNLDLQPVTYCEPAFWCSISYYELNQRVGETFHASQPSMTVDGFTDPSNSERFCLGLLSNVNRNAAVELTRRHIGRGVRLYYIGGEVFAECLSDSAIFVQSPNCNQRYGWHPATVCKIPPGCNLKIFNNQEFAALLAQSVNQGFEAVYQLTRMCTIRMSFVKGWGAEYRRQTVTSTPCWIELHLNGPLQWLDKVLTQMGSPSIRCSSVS
UniProt Q93009: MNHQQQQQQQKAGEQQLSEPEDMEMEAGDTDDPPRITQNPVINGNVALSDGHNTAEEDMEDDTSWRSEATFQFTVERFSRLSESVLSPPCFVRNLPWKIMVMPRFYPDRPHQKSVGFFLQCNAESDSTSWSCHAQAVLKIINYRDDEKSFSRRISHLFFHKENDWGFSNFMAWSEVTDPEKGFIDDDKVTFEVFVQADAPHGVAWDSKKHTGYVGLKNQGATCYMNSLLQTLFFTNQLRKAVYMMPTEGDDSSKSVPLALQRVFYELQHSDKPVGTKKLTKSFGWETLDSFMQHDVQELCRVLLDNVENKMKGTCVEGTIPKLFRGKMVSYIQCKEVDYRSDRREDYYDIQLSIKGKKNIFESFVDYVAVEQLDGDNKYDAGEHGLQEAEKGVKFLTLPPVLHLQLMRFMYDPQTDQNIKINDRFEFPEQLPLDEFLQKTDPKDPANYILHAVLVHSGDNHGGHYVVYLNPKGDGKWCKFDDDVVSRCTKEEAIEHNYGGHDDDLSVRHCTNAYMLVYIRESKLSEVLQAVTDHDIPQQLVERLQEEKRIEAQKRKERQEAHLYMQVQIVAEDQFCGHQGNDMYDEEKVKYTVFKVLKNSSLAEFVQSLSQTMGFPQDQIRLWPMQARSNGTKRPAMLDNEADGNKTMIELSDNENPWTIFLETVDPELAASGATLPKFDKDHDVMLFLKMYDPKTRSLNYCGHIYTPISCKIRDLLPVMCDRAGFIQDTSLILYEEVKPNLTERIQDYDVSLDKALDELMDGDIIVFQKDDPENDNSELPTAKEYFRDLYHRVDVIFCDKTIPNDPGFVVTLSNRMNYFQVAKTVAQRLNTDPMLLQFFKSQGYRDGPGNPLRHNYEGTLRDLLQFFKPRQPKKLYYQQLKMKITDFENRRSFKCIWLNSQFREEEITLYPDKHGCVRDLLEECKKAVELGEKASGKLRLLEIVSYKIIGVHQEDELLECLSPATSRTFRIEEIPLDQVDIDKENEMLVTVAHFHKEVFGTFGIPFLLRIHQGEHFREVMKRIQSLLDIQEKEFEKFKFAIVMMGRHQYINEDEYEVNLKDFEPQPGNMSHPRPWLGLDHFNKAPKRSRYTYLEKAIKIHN
UniProt Q15797: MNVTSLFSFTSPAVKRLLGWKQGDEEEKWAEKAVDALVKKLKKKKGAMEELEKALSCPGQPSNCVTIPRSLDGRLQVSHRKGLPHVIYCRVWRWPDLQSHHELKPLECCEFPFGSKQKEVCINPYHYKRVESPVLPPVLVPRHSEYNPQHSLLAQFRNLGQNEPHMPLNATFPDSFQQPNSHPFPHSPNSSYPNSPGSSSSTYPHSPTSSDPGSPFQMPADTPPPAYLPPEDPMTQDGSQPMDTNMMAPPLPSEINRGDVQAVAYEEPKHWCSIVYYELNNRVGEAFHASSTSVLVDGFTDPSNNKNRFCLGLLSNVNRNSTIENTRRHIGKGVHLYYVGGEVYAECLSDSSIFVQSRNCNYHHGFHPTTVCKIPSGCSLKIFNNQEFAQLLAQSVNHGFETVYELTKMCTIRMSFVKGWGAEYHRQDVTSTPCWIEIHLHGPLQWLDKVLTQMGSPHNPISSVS

Row | binding (Halo-SMAD4 (human)) | binding [1] | binding [2] | binding (SNAP-Flag-BRK-WT (human)) | Substance
1 | binds | binds | binds |  | USP9X (from UniProt Q93008 1-2554) (enzyme)
2 | binds | binds | binds |  | SMAD5 (from UniProt Q99717 1-465)
3 |  |  | no binding |  | MAX (from UniProt P61244 1-160)
4 |  | binds |  |  | HDAC2 (from UniProt Q92769 1-488) (enzyme)

The remaining lines, values behind:

Row | Substance | binding (Halo-SMAD4 (human)) | binding [1] | binding [2] | binding (SNAP-Flag-BRK-WT (human))
5 | SMAD8/9 (from UniProt O15198 1-467) | binds | binds | binds | 
6 | SMAD3 (from UniProt P84022 1-425) |  |  | no binding | 
7 | USP7 (from UniProt Q93009 1-1102) (enzyme) | binds | binds | binds | 
8 | Halo-SMAD4 (from UniProt Q13485 1-552) |  |  |  | binds
9 | HERC2 (from UniProt O95714 1-4834) (enzyme) |  | binds | no binding | 
10 | SMAD1 (from UniProt Q15797 1-465) | binds | binds | binds | 
11 | FOXK2 (from UniProt Q01167 1-660) |  |  | no binding | 
12 | SNAP-Flag-BRK-WT (from UniProt Q13882 1-451) (enzyme) | binds |  |  | 
